Results: article doi:10.1101/2020.01.21.913905
These are yes or no findings as the source states them, for the method shown. In cells and extracts the contact can be indirect. Some results given as binding are weak or reduced against the parent protein; the word gives no strength.

The chains behind the UniProt entries cited, without tags or fusion partners. Where a name states a change or a piece, a line headed by the entry shows the natural chain unless it says otherwise.
UniProt P36397: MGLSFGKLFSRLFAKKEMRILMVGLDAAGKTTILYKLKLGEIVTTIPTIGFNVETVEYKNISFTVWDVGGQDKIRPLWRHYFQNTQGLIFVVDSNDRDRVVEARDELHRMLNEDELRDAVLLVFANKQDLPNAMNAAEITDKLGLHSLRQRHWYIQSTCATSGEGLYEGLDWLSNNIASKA

How the values were obtained:
[1] = target: ARF1-Y35A,Q71L-GFP (Arabidopsis thaliana) (UniProt P36397); assay: FRET or BRET
[2] = target: ARF1-Q71L-YFP (Arabidopsis thaliana) (UniProt P36397); assay: FRET or BRET
[3] = target: ARF1-Q71L-YFP (Arabidopsis thaliana) (UniProt P36397); assay: co-IP
[4] = target: ARF1-T31N-YFP (Arabidopsis thaliana) (UniProt P36397); assay: co-IP

In the case of “ARF1-Y35A,Q71L-GFP (from UniProt P36397 1-181)”, the binding [1] is reported as “no binding”.
In the case of “ARF1-Q71L-YFP (from UniProt P36397 1-181)”, the binding [2] is reported as “binds”.
In the case of “endogenous ARF1 (from UniProt P36397 1-181)”, the binding [3] is reported as “binds” and the binding [4] is reported as “binds”.
